PubChem BioAssay AID1259308 – NCATS – 2017
Shown is one part, drawn at random, of about 59,000 deposited reagents. About 1,510 of all reagents (2.6%) were called active. 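Calls use total luciferase alone and ignore viability, so some active siRNAs may act by altering cell number.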 The numbers tell different reagents against one gene apart.

- Purpose: 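Candidate targets for better recombinant protein yield in mammalian cells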 (primary screen)
- Cells: human HEK293 embryonic kidney cells stably expressing firefly luciferase (HEK-CMV-Luc2-Hygro)
- Knock-down reagent: single siRNA against human genes, 0.8 pmol siRNA per well
- Time to read-out: 72 h
- Detection: 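Luciferase light (ONE-Glo) measured on one replicate plate set and viability (CellTiter-Glo) on the other, scaled to a negative control siRNA, with robust z-scores and luciferase per cell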
- Direction: total luciferase, z-score and total luciferase, % of control: higher = more reporter protein produced; luciferase per cell, z-score: higher = more reporter output per viable cell; viable cells, % of control: higher = more viable cells
- Hit rule: 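Active when the median/MAD z-score for overall luciferase is greater than 3; a gene was taken forward for validation with new siRNAs if at least two of its three siRNAs passed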
- Meaning of the calls: active = raised luciferase; inactive = no rise

target	siRNA no.	total luciferase, z-score	total luciferase, % of control	luciferase per cell, z-score	viable cells, % of control	Call
RPL39L (ribosomal protein L39 like)	1	-1.39	54.3	-1.68	94.5	inactive
RPL39L (ribosomal protein L39 like)	2	-0.547	71	-0.571	92.2	inactive
RPL39L (ribosomal protein L39 like)	3	1.25	107	1.02	91.2	inactive
CENPS (centromere protein S)	1	0.169	85.2	1.01	73.1	inactive
CENPS (centromere protein S)	2	-0.87	64.6	-1.59	110	inactive
CENPS (centromere protein S)	3	-1.28	56.5	0.0591	62.2	inactive
PNN (pinin, desmosome associated protein)	1	-0.696	68.1	0.319	69.9	inactive
PNN (pinin, desmosome associated protein)	2	1.17	105	1.69	75.2	inactive
PNN (pinin, desmosome associated protein)	3	-0.787	66.2	-0.871	93.1	inactive
ANKRD6 (ankyrin repeat domain 6)	1	-1.49	52.2	-1.15	79	inactive
ANKRD6 (ankyrin repeat domain 6)	2	7.5	231	4.23	84.8	active
ANKRD6 (ankyrin repeat domain 6)	3	-0.0506	80.9	1.59	59.5	inactive
CLDN12 (claudin 12)	1	-0.899	64	-1.3	101	inactive
CLDN12 (claudin 12)	2	-0.221	77.5	0.584	74.2	inactive
CLDN12 (claudin 12)	3	-1.5	52	-1.21	79.8	inactive
STAU2 (staufen double-stranded RNA binding protein 2)	1	0.169	85.2	-0.232	101	inactive
STAU2 (staufen double-stranded RNA binding protein 2)	2	-0.43	73.3	-0.616	96.4	inactive
STAU2 (staufen double-stranded RNA binding protein 2)	3	-1.68	48.5	0.0611	53.3	inactive
AP5Z1 (adaptor related protein complex 5 subunit zeta 1)	1	0.0218	82.3	-0.573	107	inactive
AP5Z1 (adaptor related protein complex 5 subunit zeta 1)	2	3.86	159	3.41	72.3	active
AP5Z1 (adaptor related protein complex 5 subunit zeta 1)	3	-0.554	70.9	-0.124	81.8	inactive
NAA50 (N-alpha-acetyltransferase 50, NatE catalytic subunit)	1	1.08	103	1.12	86	inactive
NAA50 (N-alpha-acetyltransferase 50, NatE catalytic subunit)	2	0.753	96.9	0.0129	108	inactive
NAA50 (N-alpha-acetyltransferase 50, NatE catalytic subunit)	3	0.92	100	1.39	77.7	inactive
LRRC3B (leucine rich repeat containing 3B)	1	0.443	90.7	-0.205	107	inactive
LRRC3B (leucine rich repeat containing 3B)	2	0.593	93.7	0.058	103	inactive
LRRC3B (leucine rich repeat containing 3B)	3	-0.135	79.2	-1.01	115	inactive
LYPD3 (LY6/PLAUR domain containing 3)	1	0.219	86.3	0.991	74.2	inactive
LYPD3 (LY6/PLAUR domain containing 3)	2	2.58	133	1.6	97.6	inactive
LYPD3 (LY6/PLAUR domain containing 3)	3	-0.429	73.4	0.794	66.5	inactive
COA4 (cytochrome c oxidase assembly factor 4 homolog)	1	-0.0988	79.9	-0.808	110	inactive
COA4 (cytochrome c oxidase assembly factor 4 homolog)	2	1.16	105	0.901	92.6	inactive
COA4 (cytochrome c oxidase assembly factor 4 homolog)	3	1.92	120	1.56	89.1	inactive
CBLL2 (Cbl proto-oncogene like 2)	1	-1.07	60.5	-1.09	90.2	inactive
CBLL2 (Cbl proto-oncogene like 2)	2	0.844	98.7	0.977	85.3	inactive
CBLL2 (Cbl proto-oncogene like 2)	3	0.67	95.2	0.18	101	inactive
EPB41 (erythrocyte membrane protein band 4.1)	1	2.8	138	2.94	70.8	inactive
EPB41 (erythrocyte membrane protein band 4.1)	2	-0.0613	80.7	0.138	86.9	inactive
EPB41 (erythrocyte membrane protein band 4.1)	3	-1.67	48.7	-2.21	97.3	inactive
CDC37 (cell division cycle 37, HSP90 cochaperone)	1	0.819	98.2	0.66	92.2	inactive
CDC37 (cell division cycle 37, HSP90 cochaperone)	2	-1.64	49.3	-0.334	60.2	inactive
CDC37 (cell division cycle 37, HSP90 cochaperone)	3	-0.921	63.6	-0.0965	72.9	inactive
PLAT (plasminogen activator, tissue type)	1	0.384	89.5	1.08	75.3	inactive
PLAT (plasminogen activator, tissue type)	2	0.549	92.8	-0.29	112	inactive
PLAT (plasminogen activator, tissue type)	3	0.543	92.7	0.633	87.7	inactive
SAGE1 (sarcoma antigen 1)	1	-0.257	76.8	0.0159	85.4	inactive
SAGE1 (sarcoma antigen 1)	2	0.152	84.9	0.188	90.3	inactive
SAGE1 (sarcoma antigen 1)	3	0.348	88.8	0.48	87.5	inactive
LHX1 (LIM homeobox 1)	1	0.882	99.4	1.01	85.2	inactive
LHX1 (LIM homeobox 1)	2	0.715	96.1	0.289	99.5	inactive
LHX1 (LIM homeobox 1)	3	-3.24	17.5	-1.56	29.5	inactive
NAP1L5 (nucleosome assembly protein 1 like 5)	1	2.46	131	1.94	87.9	inactive
NAP1L5 (nucleosome assembly protein 1 like 5)	2	-0.535	71.2	-0.95	102	inactive
NAP1L5 (nucleosome assembly protein 1 like 5)	3	-0.298	76	-0.898	108	inactive
DLX3 (distal-less homeobox 3)	1	-0.0903	80.1	0.0829	87.6	inactive
DLX3 (distal-less homeobox 3)	2	-0.766	66.7	-1.62	114	inactive
DLX3 (distal-less homeobox 3)	3	0.574	93.3	0.171	99.7	inactive
PPL (periplakin)	1	-0.414	73.6	-0.193	86.6	inactive
PPL (periplakin)	2	-0.909	63.8	-0.852	89.2	inactive
PPL (periplakin)	3	-0.185	78.2	0.0597	86	inactive
NOP10 (NOP10 ribonucleoprotein)	1	-0.0791	80.3	-0.13	92.9	inactive
NOP10 (NOP10 ribonucleoprotein)	2	1.02	102	0.919	89.7	inactive
NOP10 (NOP10 ribonucleoprotein)	3	1.73	116	1.32	91.6	inactive
EYS (EGF-like photoreceptor maintenance factor)	1	-1.69	48.4	-0.274	58.1	inactive
EYS (EGF-like photoreceptor maintenance factor)	2	-0.73	67.4	-0.539	86.8	inactive
EYS (EGF-like photoreceptor maintenance factor)	3	0.631	94.4	0.711	87.5	inactive
EYS (EGF-like photoreceptor maintenance factor)	4	-0.463	72.7	-0.61	95.3	inactive
EYS (EGF-like photoreceptor maintenance factor)	5	-0.306	75.8	0.112	82.2	inactive
EYS (EGF-like photoreceptor maintenance factor)	6	-1.19	58.2	-1.66	101	inactive
EYS (EGF-like photoreceptor maintenance factor)	7	0.32	88.3	-0.332	108	inactive
EYS (EGF-like photoreceptor maintenance factor)	8	0.839	98.6	0.438	98.2	inactive
EYS (EGF-like photoreceptor maintenance factor)	9	0.299	87.8	0.822	79.1	inactive
SERPINH1 (serpin family H member 1)	1	-0.756	66.8	-1.35	107	inactive
SERPINH1 (serpin family H member 1)	2	-0.0419	81.1	1.01	69.4	inactive
SERPINH1 (serpin family H member 1)	3	-1.19	58.3	-1.72	102	inactive
